{"source": "patent US20260232763A1", "about": "(Kadmon Corporation, LLC, priority 2023, published 2026)", "origin": "cited, not measured here", "test_system": "chronic GVHD", "settings": "in vivo; cited from earlier work", "note": "At least one compound was matched to its structure with a doubt left."}
{"smiles": "CC(C)NC(=O)COc1cccc(-c2nc(Nc3ccc4[nH]ncc4c3)c3ccccc3n2)c1", "note": "[belumosudil, 2-{3-[4-(1H-indazol-5-ylamino)-2-quinazolinyl]phenoxy}-N-(propan-2-yl) acetamide]", "values": [{"measurement": "activity in animal models of chronic GVHD", "value": "demonstrated activity"}]}
